In patent CN105367660A one finds binding data, which are given here for 1 molecule.

Chains of the proteins cited; added tags and fusions are not shown. Residues count along the entry.
UniProt P15941, residues 24-1255: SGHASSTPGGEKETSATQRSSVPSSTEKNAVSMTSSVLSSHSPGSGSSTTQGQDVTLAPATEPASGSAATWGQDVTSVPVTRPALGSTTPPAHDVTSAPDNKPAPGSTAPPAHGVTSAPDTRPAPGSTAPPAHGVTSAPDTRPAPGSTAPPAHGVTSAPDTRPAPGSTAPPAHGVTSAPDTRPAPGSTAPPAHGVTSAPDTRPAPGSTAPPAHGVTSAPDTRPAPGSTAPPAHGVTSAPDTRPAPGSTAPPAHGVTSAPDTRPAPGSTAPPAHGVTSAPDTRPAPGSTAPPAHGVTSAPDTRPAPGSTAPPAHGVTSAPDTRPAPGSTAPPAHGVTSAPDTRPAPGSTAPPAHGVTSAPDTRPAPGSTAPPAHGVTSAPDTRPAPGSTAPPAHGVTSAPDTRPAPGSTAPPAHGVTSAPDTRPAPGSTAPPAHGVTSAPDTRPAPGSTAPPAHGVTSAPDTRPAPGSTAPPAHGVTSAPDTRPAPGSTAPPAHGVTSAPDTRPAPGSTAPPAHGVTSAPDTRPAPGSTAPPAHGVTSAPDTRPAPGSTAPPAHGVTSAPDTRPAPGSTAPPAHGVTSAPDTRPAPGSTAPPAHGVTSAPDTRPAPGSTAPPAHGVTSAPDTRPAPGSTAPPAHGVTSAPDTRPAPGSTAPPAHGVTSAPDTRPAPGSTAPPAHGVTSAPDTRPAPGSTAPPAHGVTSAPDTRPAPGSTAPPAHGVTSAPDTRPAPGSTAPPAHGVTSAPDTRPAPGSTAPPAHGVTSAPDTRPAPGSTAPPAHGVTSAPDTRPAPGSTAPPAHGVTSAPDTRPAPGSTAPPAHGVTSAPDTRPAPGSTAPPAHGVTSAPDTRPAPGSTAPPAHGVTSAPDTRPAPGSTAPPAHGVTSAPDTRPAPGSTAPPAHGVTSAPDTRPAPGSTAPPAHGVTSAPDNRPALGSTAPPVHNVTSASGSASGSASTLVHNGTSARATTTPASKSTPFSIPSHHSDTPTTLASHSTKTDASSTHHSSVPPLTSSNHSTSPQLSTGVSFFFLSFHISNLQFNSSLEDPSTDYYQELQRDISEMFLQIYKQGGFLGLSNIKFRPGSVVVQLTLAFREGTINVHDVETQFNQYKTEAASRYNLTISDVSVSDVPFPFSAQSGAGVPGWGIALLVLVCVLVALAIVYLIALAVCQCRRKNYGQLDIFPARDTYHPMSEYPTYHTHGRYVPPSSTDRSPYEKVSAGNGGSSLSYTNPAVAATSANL

Results are given in words; binding and its absence hold for the method and conditions named. Some binding calls cover weakened binding; strength is not graded here.

The experiment concerns the target MUC1抗原 (human) (UniProt P15941). Description: flow cytometry on MUC1-positive MCF-7 cells, 10 nM bispecific antibody, biotin goat anti-human IgG F(ab')2-specific antibody and PE-streptavidin. On the technique in general: A flow cytometer gives signals particle by particle.

B1: 抗CD16A抗原和抗MUC1抗原的双特异性抗体 (bispecific antibody, not shown: a dimerising Fc or GST)
chain: DTVLTQSPASLAVSLGQRATISCKASQSVDFDGHSFMNWYQQKPGQPPKLLIYTTSNLESGIPASFSASGSGTDFTLNIHPVEEEDTATYYCQQSNEDPYTFGGGTKLEIKGGGGSQMQLVQSGAEVKKPGASVKVSCKASGYTFTGHYMHWVRQAPGQGLEWMGWIDPVTGGTKYAQNFQGWVTMTRDTSIRTAYMELSRLRSDDTAMYYCAREVTGDRGQFDKWGQGTLVTVASGGGGSGGGGSCPPCPGGGGSQSVLTQPPSVSVAPGKTARITCGGNNIGSKSVHWYQQKPGQAPVLVIYYDSDRPSGIPERFSGSNSGNTATLTISRVEAGDEADYYCQVWDSSSDWVFGGGTKLTVLGGGGSQVTLRESGPALVKPTQTLTLTCTFSGFSLSTSGMGVGWIRQPPGKALEWLAHIWWDDDKRYNPALKSRLTISKDTSKNQVVLTMTNMDPVDTATYYCARINPAWFAYWGQGTLVTVSS
Take B1: the binding entry is recorded as “binds”.
